Among the data in paper PMC8259991, “Transgenerational inheritance of centromere identity requires the CENP-A N-terminal tail in the C. elegans maternal germ line” (PLoS Biology, 2021) are binding values, retold here.

These are yes or no findings as the source states them, for the method shown. For some assays here: A result given as binding can be weak or reduced; the word gives no strength. Where a sequence is shown, tags or fusion partners need not be part of it.

Assay [1] concerns the target CENP-A N-terminal tail, yeast two-hybrid DNA-binding domain fusion (C. elegans). Briefly: two-hybrid; GAL4-based system, yeast strain MAV203; KNL-2 cDNA fragments in pDEST22 (activation domain), CENP-A cDNA fragments in pDEST32 (DNA binding domain); growth on SD-LTH with 5 mM 3AT.
The target in assay [2] is CENP-A histone fold domain (HFD), yeast two-hybrid DNA-binding domain fusion (C. elegans). The assay is described as above.

B1: KNL-2 central region (aa 269-470), yeast two-hybrid activation domain fusion (domain or fragment, UniProt O44548 269-470)
chain: QIPPTQKSQDSVQAVQPPPPRPAARNAQFASDADLFAVPKAPPSKSVRNLAASNVDIFADVDSVLDTFHFESTPGRVRKPGRRNVSSPSPEPRHRSSSRDGYEQSRYSQRYEHDNSRWSRHNATYRRHEDESRMSRKRSIVRDDFEYSRRHDDGARRRDYYDADIQGDSKRYRGRDASSSSGRSVRFEEEHRRHGDEYRDPR
As to B1, the binding result in assay [1] is given as “binds”.

B2: KNL-2 N-terminal region (aa 1-268), yeast two-hybrid activation domain fusion (domain or fragment, UniProt O44548 1-268)
chain: MGDTEIVPLRVQNVLDSEIIRLNLWSMKFNATSFKLEGFVRNEEGTMMQKVCSEFICRRFTSTLLFDVSGRFFDLVGQIDREYQQKMGMPSRIIDEFSNGIPENWADLIYSCMSANQRSALRPIQQAPKEPIRTRTEPIVTLADETELTGGCQKNSENEKERNRREREEQQTKERERRLEEEKQRRDAEAEAERRRKEEEELEEANYTLRAPKSQNGEPITPIRFTRGHDNGGAKKVFIFEQTPVRKQGPIASSTPQQKQRLADGANN
Regarding B2, the binding entry in assay [1] is on record as “no binding”.

B3: KNL-2 C-terminal region (aa 471-877), yeast two-hybrid activation domain fusion (domain or fragment, UniProt O44548 471-877)
chain: GPRDYNDYGRRRNHANSRSGEDEEKLNAIVRREKELRNRLQKSQKASSSSYRHRSNSSDAEESLNEWDIENQELLDNSMMFGDGIPKRSNARKDKFVKKQATRSKPANSTKSPAQARKKKRASLEDNRDLNDSIACNRPRRSCVTPVAKKITWRKQDLDRLKRVIALKKPSASDADWTEVLRLLAKEGVVEPEVVRQIAITRLKWVEPEQNEEVLKQVEEVEQKRRRGAVARVKENVKMHEELREGGNHRAEDLQSGVESMEDYQPEDVAADQSLLALRTPIVTKKRGGTRASIMPKPVEDSPMSRGNNSTFNSPRLEQTKAKDIETNFKYVQHLSMMQARPSSRLKKSSSMNNSTYRGNKNTSISLEKGTQKALKIINRGTTIHEDDENEDNDDDDDMREEDTSIY
B3: the binding result in assay [1] is “no binding”.

B4: full-length KNL-2, yeast two-hybrid activation domain fusion (protein, UniProt O44548 1-877)
chain: MGDTEIVPLRVQNVLDSEIIRLNLWSMKFNATSFKLEGFVRNEEGTMMQKVCSEFICRRFTSTLLFDVSGRFFDLVGQIDREYQQKMGMPSRIIDEFSNGIPENWADLIYSCMSANQRSALRPIQQAPKEPIRTRTEPIVTLADETELTGGCQKNSENEKERNRREREEQQTKERERRLEEEKQRRDAEAEAERRRKEEEELEEANYTLRAPKSQNGEPITPIRFTRGHDNGGAKKVFIFEQTPVRKQGPIASSTPQQKQRLADGANNQIPPTQKSQDSVQAVQPPPPRPAARNAQFASDADLFAVPKAPPSKSVRNLAASNVDIFADVDSVLDTFHFESTPGRVRKPGRRNVSSPSPEPRHRSSSRDGYEQSRYSQRYEHDNSRWSRHNATYRRHEDESRMSRKRSIVRDDFEYSRRHDDGARRRDYYDADIQGDSKRYRGRDASSSSGRSVRFEEEHRRHGDEYRDPRGPRDYNDYGRRRNHANSRSGEDEEKLNAIVRREKELRNRLQKSQKASSSSYRHRSNSSDAEESLNEWDIENQELLDNSMMFGDGIPKRSNARKDKFVKKQATRSKPANSTKSPAQARKKKRASLEDNRDLNDSIACNRPRRSCVTPVAKKITWRKQDLDRLKRVIALKKPSASDADWTEVLRLLAKEGVVEPEVVRQIAITRLKWVEPEQNEEVLKQVEEVEQKRRRGAVARVKENVKMHEELREGGNHRAEDLQSGVESMEDYQPEDVAADQSLLALRTPIVTKKRGGTRASIMPKPVEDSPMSRGNNSTFNSPRLEQTKAKDIETNFKYVQHLSMMQARPSSRLKKSSSMNNSTYRGNKNTSISLEKGTQKALKIINRGTTIHEDDENEDNDDDDDMREEDTSIY
For the molecule B4, the binding entry is “binds” in assay [1] and “no binding” in assay [2].
